The exact form of at least one protein or probe is not confirmed. For some of these results: A weaker result is weaker than the reference pair of the same experiment. Protein sequences can lack the tags named with them. For some of these results: At least one verdict rests on a figure or table, not on a statement of the authors.
Assays:
AlkB (Escherichia coli) [1] = biological target: T1, AlkB (Escherichia coli) (UniProt P05050); test: stopped-flow Trp fluorescence; K1 one order of magnitude lower than for ssODN; details: Fe(II), aKG; N1-methyladenine at position 6 of strand 1; 50 mM HEPES-KOH pH 7.5, 50 mM KCl, 10 mM MgCl2, 40 uM Fe(II), 1 mM aKG, 2 mM ascorbate (composition as given for the anaerobic runs); stopped-flow at 37 C; recombinant protein; residues 1-216; protein details: His6
T1 sequence (looked up): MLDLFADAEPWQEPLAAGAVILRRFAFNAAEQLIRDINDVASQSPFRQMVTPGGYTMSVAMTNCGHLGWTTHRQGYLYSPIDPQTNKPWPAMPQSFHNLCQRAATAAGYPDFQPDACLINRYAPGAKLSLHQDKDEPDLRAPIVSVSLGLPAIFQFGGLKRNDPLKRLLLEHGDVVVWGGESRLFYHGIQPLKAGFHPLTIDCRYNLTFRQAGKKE

AlkB (Escherichia coli) [2] = biological target: T1, AlkB (Escherichia coli); test: Trp fluorescence equilibrium titration (micromolar range, value only in figure); details: 40 uM Fe(II), 1 mM aKG, 50 mM HEPES-KOH pH 7.5, 50 mM KCl, 10 mM MgCl2, 40 uM Fe(II), 2 mM ascorbate (composition as given for the anaerobic runs), stopped-flow at 37 C, recombinant protein
AlkB (Escherichia coli) [3] = biological target: T1, AlkB (Escherichia coli); test: Trp fluorescence equilibrium titration (micromolar range, value only in figure; weakest); details: 40 uM Fe(II), 1 mM aKG, 50 mM HEPES-KOH pH 7.5, 50 mM KCl, 10 mM MgCl2, 40 uM Fe(II), 2 mM ascorbate (composition as given for the anaerobic runs), stopped-flow at 37 C, recombinant protein, residues 1-216, protein details: His6

Does “ACAGGATCCGGCATA (double strand) [ds15m1A]” bind (AlkB (Escherichia coli) [1])?
Result: binds more weakly

Does ACAGGATCCGGCATA [ss15A] bind (AlkB (Escherichia coli) [2]; residues 1-216, protein details: His6, single-stranded DNA)?
Result: binds

Which results are given for ACAGGATCCGGCATA (double strand) [ds15A]?
binding result (AlkB (Escherichia coli) [2]; 2 mM succinate, residues 1-216, protein details: His6): binds; binding result (AlkB (Escherichia coli) [3]): binds more weakly

Reference: PMC6943663, “A Single-Turnover Kinetic Study of DNA Demethylation Catalyzed by Fe(II)/α-Ketoglutarate-Dependent Dioxygenase AlkB”
